This test deals with HA-3×Flag-RIPK3 (in HT29-HA-3×Flag-RIPK3 cells) (human) (UniProt Q9Y572). The experiment in a line: affinity purification with mass spectrometry; HT29-HA-3×Flag-RIPK3 cell lysates immunoprecipitated with anti-Flag resin; protein mixture analysed by mass spectrometry.

By UniProt entry, the sequences of proteins in these tests, tags left out.
UniProt Q9Y572: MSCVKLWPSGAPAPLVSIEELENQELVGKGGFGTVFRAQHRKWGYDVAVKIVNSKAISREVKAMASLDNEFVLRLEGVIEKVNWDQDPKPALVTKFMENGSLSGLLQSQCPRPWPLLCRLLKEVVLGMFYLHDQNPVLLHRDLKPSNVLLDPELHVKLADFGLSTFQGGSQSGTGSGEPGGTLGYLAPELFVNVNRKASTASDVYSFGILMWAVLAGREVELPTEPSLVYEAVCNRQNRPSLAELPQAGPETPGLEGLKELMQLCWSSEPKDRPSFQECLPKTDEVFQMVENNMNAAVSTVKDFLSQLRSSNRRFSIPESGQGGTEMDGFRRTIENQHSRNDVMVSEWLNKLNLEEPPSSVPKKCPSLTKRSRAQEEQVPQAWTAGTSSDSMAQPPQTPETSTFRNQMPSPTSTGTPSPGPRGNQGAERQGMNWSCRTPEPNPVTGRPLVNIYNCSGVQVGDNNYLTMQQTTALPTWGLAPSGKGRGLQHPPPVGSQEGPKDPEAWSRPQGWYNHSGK
UniProt P49674: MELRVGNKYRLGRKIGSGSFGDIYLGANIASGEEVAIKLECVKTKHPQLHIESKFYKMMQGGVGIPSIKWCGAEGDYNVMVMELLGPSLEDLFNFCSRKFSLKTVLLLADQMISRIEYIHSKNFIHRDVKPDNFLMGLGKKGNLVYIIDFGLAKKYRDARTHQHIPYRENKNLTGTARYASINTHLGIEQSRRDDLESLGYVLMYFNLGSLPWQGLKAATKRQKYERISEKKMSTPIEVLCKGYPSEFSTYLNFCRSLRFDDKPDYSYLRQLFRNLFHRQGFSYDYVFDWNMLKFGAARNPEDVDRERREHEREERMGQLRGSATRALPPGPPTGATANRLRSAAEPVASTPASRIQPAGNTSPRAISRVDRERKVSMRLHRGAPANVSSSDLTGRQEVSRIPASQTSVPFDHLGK

No constants are given. Whether binding was seen depends on the method and setting. Binding seen in cells or lysates may run through a third protein. Here binding means that the protein was enriched with, or labelled near, the bait; the list need not be complete.

Take “CSNK1E (from UniProt P49674 1-416) (enzyme)”: the binding result is given as “binds”.

The values above are taken from article PMC7673785.
